Binding data for four molecules are collected here from PMC10176696.

Results are given in words; binding and its absence hold for the method and conditions named. Binding seen in cells or lysates may run through a third protein. Some results given as binding are weak or reduced against the parent protein; the word gives no strength. For some of these results: Sequences can lack the tags named with a protein.

The target in one assay is T1, Flag-USP3 (UniProt Q9Y6I4).
T1 sequence: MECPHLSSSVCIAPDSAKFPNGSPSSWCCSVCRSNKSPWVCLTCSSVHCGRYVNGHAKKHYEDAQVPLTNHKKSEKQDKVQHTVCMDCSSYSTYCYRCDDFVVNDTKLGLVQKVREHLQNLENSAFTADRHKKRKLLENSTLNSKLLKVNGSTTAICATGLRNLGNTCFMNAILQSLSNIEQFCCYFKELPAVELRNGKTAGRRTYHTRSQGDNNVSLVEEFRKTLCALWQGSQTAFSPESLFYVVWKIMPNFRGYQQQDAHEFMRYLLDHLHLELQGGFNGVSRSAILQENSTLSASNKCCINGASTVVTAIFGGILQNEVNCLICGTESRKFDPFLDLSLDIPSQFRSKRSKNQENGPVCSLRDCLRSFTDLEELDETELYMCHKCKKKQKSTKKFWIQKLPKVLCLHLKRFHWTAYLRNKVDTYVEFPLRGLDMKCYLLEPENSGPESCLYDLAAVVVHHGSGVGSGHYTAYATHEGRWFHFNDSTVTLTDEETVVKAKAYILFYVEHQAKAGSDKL
In words: co-IP; HEK293 cells transfected with Flag-USP3 or Flag-USP19 and Myc-REST; lysates immunoprecipitated with anti-Flag or anti-Myc antibody, western blot; IP lysis buffer 25 mM Tris-HCl pH 7.4, 150 mM NaCl, 1 mM EDTA, 1% NP-40, 5% glycerol; 4 °C overnight.

In assay [1] the target is T2, endogenous USP3 (human (endogenous in SH-SY5Y)) (UniProt Q9Y6I4).
T2 sequence: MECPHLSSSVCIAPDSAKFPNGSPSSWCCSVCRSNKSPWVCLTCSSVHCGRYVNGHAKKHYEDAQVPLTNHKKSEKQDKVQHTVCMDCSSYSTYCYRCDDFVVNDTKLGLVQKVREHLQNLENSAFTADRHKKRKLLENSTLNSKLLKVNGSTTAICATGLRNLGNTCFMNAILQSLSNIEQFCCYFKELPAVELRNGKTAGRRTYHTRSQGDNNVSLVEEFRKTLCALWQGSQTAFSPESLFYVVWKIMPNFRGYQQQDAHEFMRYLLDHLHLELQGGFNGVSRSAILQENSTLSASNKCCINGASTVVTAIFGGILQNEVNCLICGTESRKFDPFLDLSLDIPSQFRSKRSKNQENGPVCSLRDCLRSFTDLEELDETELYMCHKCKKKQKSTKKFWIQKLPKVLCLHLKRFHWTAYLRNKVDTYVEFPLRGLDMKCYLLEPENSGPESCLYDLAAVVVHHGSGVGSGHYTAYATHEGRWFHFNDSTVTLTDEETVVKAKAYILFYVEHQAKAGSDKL
In words: co-IP; endogenous proteins in SH-SY5Y lysate; immunoprecipitated with antibodies against USP3 or REST, western blot; IP lysis buffer 25 mM Tris-HCl pH 7.4, 150 mM NaCl, 1 mM EDTA, 1% NP-40, 5% glycerol; 4 °C overnight. (In general: In western blotting, separated proteins are transferred to a membrane and probed.)

In another assay the target is T3, Myc-REST (UniProt Q13127).
T3 sequence: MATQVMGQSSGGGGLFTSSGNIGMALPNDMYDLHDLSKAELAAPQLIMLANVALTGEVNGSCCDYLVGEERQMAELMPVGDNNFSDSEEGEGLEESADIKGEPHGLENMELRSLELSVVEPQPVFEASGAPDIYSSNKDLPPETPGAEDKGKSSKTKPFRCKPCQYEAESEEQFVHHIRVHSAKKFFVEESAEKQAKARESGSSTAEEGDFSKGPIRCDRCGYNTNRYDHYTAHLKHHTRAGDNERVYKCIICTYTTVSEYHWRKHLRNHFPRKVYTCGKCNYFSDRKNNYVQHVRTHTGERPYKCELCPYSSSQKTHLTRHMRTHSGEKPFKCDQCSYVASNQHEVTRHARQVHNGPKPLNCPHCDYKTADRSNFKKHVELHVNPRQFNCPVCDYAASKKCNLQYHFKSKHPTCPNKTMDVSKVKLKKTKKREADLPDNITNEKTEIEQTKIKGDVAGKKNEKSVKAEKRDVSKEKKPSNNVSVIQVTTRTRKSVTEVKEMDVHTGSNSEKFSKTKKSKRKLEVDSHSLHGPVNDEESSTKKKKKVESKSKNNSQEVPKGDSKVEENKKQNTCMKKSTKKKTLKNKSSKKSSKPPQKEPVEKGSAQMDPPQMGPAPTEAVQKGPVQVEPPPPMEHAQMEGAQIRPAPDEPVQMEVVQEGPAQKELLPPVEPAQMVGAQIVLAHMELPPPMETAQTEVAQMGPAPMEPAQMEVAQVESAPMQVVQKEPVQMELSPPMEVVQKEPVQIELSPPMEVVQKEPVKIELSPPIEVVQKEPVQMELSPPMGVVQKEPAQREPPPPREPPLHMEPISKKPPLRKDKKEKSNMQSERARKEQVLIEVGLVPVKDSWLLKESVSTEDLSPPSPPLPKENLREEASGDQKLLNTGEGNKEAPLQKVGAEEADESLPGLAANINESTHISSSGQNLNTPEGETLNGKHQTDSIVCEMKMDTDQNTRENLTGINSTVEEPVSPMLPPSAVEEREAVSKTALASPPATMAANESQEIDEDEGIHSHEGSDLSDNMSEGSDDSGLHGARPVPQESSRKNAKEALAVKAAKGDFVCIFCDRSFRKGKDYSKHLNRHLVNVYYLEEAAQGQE
In words: co-IP; HEK293 cells transfected with Flag-USP3 or Flag-USP19 and Myc-REST; lysates immunoprecipitated with anti-Flag or anti-Myc antibody, western blot; IP lysis buffer 25 mM Tris-HCl pH 7.4, 150 mM NaCl, 1 mM EDTA, 1% NP-40, 5% glycerol; 4 °C overnight.

B1: Myc-REST (protein, UniProt Q13127 1-1097)
chain: MATQVMGQSSGGGGLFTSSGNIGMALPNDMYDLHDLSKAELAAPQLIMLANVALTGEVNGSCCDYLVGEERQMAELMPVGDNNFSDSEEGEGLEESADIKGEPHGLENMELRSLELSVVEPQPVFEASGAPDIYSSNKDLPPETPGAEDKGKSSKTKPFRCKPCQYEAESEEQFVHHIRVHSAKKFFVEESAEKQAKARESGSSTAEEGDFSKGPIRCDRCGYNTNRYDHYTAHLKHHTRAGDNERVYKCIICTYTTVSEYHWRKHLRNHFPRKVYTCGKCNYFSDRKNNYVQHVRTHTGERPYKCELCPYSSSQKTHLTRHMRTHSGEKPFKCDQCSYVASNQHEVTRHARQVHNGPKPLNCPHCDYKTADRSNFKKHVELHVNPRQFNCPVCDYAASKKCNLQYHFKSKHPTCPNKTMDVSKVKLKKTKKREADLPDNITNEKTEIEQTKIKGDVAGKKNEKSVKAEKRDVSKEKKPSNNVSVIQVTTRTRKSVTEVKEMDVHTGSNSEKFSKTKKSKRKLEVDSHSLHGPVNDEESSTKKKKKVESKSKNNSQEVPKGDSKVEENKKQNTCMKKSTKKKTLKNKSSKKSSKPPQKEPVEKGSAQMDPPQMGPAPTEAVQKGPVQVEPPPPMEHAQMEGAQIRPAPDEPVQMEVVQEGPAQKELLPPVEPAQMVGAQIVLAHMELPPPMETAQTEVAQMGPAPMEPAQMEVAQVESAPMQVVQKEPVQMELSPPMEVVQKEPVQIELSPPMEVVQKEPVKIELSPPIEVVQKEPVQMELSPPMGVVQKEPAQREPPPPREPPLHMEPISKKPPLRKDKKEKSNMQSERARKEQVLIEVGLVPVKDSWLLKESVSTEDLSPPSPPLPKENLREEASGDQKLLNTGEGNKEAPLQKVGAEEADESLPGLAANINESTHISSSGQNLNTPEGETLNGKHQTDSIVCEMKMDTDQNTRENLTGINSTVEEPVSPMLPPSAVEEREAVSKTALASPPATMAANESQEIDEDEGIHSHEGSDLSDNMSEGSDDSGLHGARPVPQESSRKNAKEALAVKAAKGDFVCIFCDRSFRKGKDYSKHLNRHLVNVYYLEEAAQGQE
With B1, the binding result with Flag-USP3 was “binds”.

B2: endogenous REST (protein, UniProt Q13127 1-1097)
chain: MATQVMGQSSGGGGLFTSSGNIGMALPNDMYDLHDLSKAELAAPQLIMLANVALTGEVNGSCCDYLVGEERQMAELMPVGDNNFSDSEEGEGLEESADIKGEPHGLENMELRSLELSVVEPQPVFEASGAPDIYSSNKDLPPETPGAEDKGKSSKTKPFRCKPCQYEAESEEQFVHHIRVHSAKKFFVEESAEKQAKARESGSSTAEEGDFSKGPIRCDRCGYNTNRYDHYTAHLKHHTRAGDNERVYKCIICTYTTVSEYHWRKHLRNHFPRKVYTCGKCNYFSDRKNNYVQHVRTHTGERPYKCELCPYSSSQKTHLTRHMRTHSGEKPFKCDQCSYVASNQHEVTRHARQVHNGPKPLNCPHCDYKTADRSNFKKHVELHVNPRQFNCPVCDYAASKKCNLQYHFKSKHPTCPNKTMDVSKVKLKKTKKREADLPDNITNEKTEIEQTKIKGDVAGKKNEKSVKAEKRDVSKEKKPSNNVSVIQVTTRTRKSVTEVKEMDVHTGSNSEKFSKTKKSKRKLEVDSHSLHGPVNDEESSTKKKKKVESKSKNNSQEVPKGDSKVEENKKQNTCMKKSTKKKTLKNKSSKKSSKPPQKEPVEKGSAQMDPPQMGPAPTEAVQKGPVQVEPPPPMEHAQMEGAQIRPAPDEPVQMEVVQEGPAQKELLPPVEPAQMVGAQIVLAHMELPPPMETAQTEVAQMGPAPMEPAQMEVAQVESAPMQVVQKEPVQMELSPPMEVVQKEPVQIELSPPMEVVQKEPVKIELSPPIEVVQKEPVQMELSPPMGVVQKEPAQREPPPPREPPLHMEPISKKPPLRKDKKEKSNMQSERARKEQVLIEVGLVPVKDSWLLKESVSTEDLSPPSPPLPKENLREEASGDQKLLNTGEGNKEAPLQKVGAEEADESLPGLAANINESTHISSSGQNLNTPEGETLNGKHQTDSIVCEMKMDTDQNTRENLTGINSTVEEPVSPMLPPSAVEEREAVSKTALASPPATMAANESQEIDEDEGIHSHEGSDLSDNMSEGSDDSGLHGARPVPQESSRKNAKEALAVKAAKGDFVCIFCDRSFRKGKDYSKHLNRHLVNVYYLEEAAQGQE
In the case of B2, the binding entry in assay [1] is reported as “binds”.

B3: Flag-USP19 (enzyme, UniProt O94966 1-1318)
chain: MSGGASATGPRRGPPGLEDTTSKKKQKDRANQESKDGDPRKETGSRYVAQAGLEPLASGDPSASASHAAGITGSRHRTRLFFPSSSGSASTPQEEQTKEGACEDPHDLLATPTPELLLDWRQSAEEVIVKLRVGVGPLQLEDVDAAFTDTDCVVRFAGGQQWGGVFYAEIKSSCAKVQTRKGSLLHLTLPKKVPMLTWPSLLVEADEQLCIPPLNSQTCLLGSEENLAPLAGEKAVPPGNDPVSPAMVRSRNPGKDDCAKEEMAVAADAATLVDEPESMVNLAFVKNDSYEKGPDSVVVHVYVKEICRDTSRVLFREQDFTLIFQTRDGNFLRLHPGCGPHTTFRWQVKLRNLIEPEQCTFCFTASRIDICLRKRQSQRWGGLEAPAARVGGAKVAVPTGPTPLDSTPPGGAPHPLTGQEEARAVEKDKSKARSEDTGLDSVATRTPMEHVTPKPETHLASPKPTCMVPPMPHSPVSGDSVEEEEEEEKKVCLPGFTGLVNLGNTCFMNSVIQSLSNTRELRDFFHDRSFEAEINYNNPLGTGGRLAIGFAVLLRALWKGTHHAFQPSKLKAIVASKASQFTGYAQHDAQEFMAFLLDGLHEDLNRIQNKPYTETVDSDGRPDEVVAEEAWQRHKMRNDSFIVDLFQGQYKSKLVCPVCAKVSITFDPFLYLPVPLPQKQKVLPVFYFAREPHSKPIKFLVSVSKENSTASEVLDSLSQSVHVKPENLRLAEVIKNRFHRVFLPSHSLDTVSPSDTLLCFELLSSELAKERVVVLEVQQRPQVPSVPISKCAACQRKQQSEDEKLKRCTRCYRVGYCNQLCQKTHWPDHKGLCRPENIGYPFLVSVPASRLTYARLAQLLEGYARYSVSVFQPPFQPGRMALESQSPGCTTLLSTGSLEAGDSERDPIQPPELQLVTPMAEGDTGLPRVWAAPDRGPVPSTSGISSEMLASGPIEVGSLPAGERVSRPEAAVPGYQHPSEAMNAHTPQFFIYKIDSSNREQRLEDKGDTPLELGDDCSLALVWRNNERLQEFVLVASKELECAEDPGSAGEAARAGHFTLDQCLNLFTRPEVLAPEEAWYCPQCKQHREASKQLLLWRLPNVLIVQLKRFSFRSFIWRDKINDLVEFPVRNLDLSKFCIGQKEEQLPSYDLYAVINHYGGMIGGHYTACARLPNDRSSQRSDVGWRLFDDSTVTTVDESQVVTRYAYVLFYRRRNSPVERPPRAGHSEHHPDLGPAAEAAASQASRIWQELEAEEEPVPEGSGPLGPWGPQDWVGPLPRGPTTPDEGCLRYFVLGTVAALVALVLNVFYPLVSQSRWR
With B3, the binding result with Myc-REST is recorded as “no binding”.

B4: Flag-USP3 (enzyme, UniProt Q9Y6I4 1-520)
chain: MECPHLSSSVCIAPDSAKFPNGSPSSWCCSVCRSNKSPWVCLTCSSVHCGRYVNGHAKKHYEDAQVPLTNHKKSEKQDKVQHTVCMDCSSYSTYCYRCDDFVVNDTKLGLVQKVREHLQNLENSAFTADRHKKRKLLENSTLNSKLLKVNGSTTAICATGLRNLGNTCFMNAILQSLSNIEQFCCYFKELPAVELRNGKTAGRRTYHTRSQGDNNVSLVEEFRKTLCALWQGSQTAFSPESLFYVVWKIMPNFRGYQQQDAHEFMRYLLDHLHLELQGGFNGVSRSAILQENSTLSASNKCCINGASTVVTAIFGGILQNEVNCLICGTESRKFDPFLDLSLDIPSQFRSKRSKNQENGPVCSLRDCLRSFTDLEELDETELYMCHKCKKKQKSTKKFWIQKLPKVLCLHLKRFHWTAYLRNKVDTYVEFPLRGLDMKCYLLEPENSGPESCLYDLAAVVVHHGSGVGSGHYTAYATHEGRWFHFNDSTVTLTDEETVVKAKAYILFYVEHQAKAGSDKL
B4: in the assay with Myc-REST, the binding entry is on record as “binds”.
